In article PMC2911433:
Results are given in words; binding and its absence hold for the method and conditions named. Some results given as binding are weak or reduced against the parent protein; the word gives no strength.

By UniProt entry, the sequences of proteins in these tests, tags left out. Residues count along the entry.
UniProt P15502, residues 27-786: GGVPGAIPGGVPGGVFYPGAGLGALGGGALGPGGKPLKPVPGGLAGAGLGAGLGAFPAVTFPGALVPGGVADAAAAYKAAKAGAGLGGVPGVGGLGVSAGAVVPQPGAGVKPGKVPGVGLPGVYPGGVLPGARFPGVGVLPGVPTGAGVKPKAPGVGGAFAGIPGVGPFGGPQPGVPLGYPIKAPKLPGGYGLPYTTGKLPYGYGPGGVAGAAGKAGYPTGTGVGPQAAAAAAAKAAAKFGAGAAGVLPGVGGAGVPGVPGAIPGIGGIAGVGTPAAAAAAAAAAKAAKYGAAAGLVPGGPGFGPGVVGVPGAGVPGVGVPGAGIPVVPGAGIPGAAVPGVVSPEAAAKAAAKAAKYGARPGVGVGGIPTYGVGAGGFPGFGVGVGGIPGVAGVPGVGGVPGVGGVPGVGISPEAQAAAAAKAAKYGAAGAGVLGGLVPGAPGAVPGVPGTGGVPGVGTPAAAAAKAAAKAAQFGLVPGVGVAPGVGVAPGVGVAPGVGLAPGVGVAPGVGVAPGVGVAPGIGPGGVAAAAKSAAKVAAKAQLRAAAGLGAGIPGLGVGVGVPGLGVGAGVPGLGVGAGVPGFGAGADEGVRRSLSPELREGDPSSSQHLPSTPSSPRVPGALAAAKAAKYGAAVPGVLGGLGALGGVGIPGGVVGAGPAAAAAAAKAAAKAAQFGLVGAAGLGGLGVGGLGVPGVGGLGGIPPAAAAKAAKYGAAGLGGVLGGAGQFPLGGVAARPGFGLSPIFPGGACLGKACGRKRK
UniProt Q9KGY8: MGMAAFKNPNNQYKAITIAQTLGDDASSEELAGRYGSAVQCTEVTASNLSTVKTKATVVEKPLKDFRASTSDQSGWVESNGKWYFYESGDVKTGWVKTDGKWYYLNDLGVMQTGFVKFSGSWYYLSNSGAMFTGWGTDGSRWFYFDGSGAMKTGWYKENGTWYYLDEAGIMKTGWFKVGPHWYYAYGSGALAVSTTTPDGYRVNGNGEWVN

Key:
elastin [1] = biological target: elastin (UniProt P15502); assay: ELISA; dose-response: same solid-phase protocol, 1 μg mammalian protein coated, increasing quantities of His-tagged pneumococcal protein from 0.8 to 200 pmoles per well; BSA as control; both purified
C-reactive protein [2] = biological target: T1, C-reactive protein (UniProt P02741); assay: as above
T1 sequence: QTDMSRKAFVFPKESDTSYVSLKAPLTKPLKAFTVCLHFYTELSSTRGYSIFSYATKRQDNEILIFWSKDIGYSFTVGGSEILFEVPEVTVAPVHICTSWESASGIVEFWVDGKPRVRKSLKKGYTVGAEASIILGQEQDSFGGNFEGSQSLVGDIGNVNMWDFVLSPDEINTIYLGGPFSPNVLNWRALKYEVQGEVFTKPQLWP

elastin [3] = biological target: elastin (UniProt P15502); assay: ELISA; solid-phase screen: 1 μg mammalian protein in 100 μL PBS pH7.0 coated on white 96 well plates overnight at 4°C; saturation 1 h with PBS 2% BSA; 200 pmole His-Tagged pneumococcal protein in 100 μL PBS for two hours at room temperature; washes PBS, Tween 0,03%; anti His-HRP antibody, ECL luminescence; positive = twice the BSA negative control in the majority of at least 3 independent experiments; both purified
C-reactive protein [4] = biological target: T1, C-reactive protein; assay: as above

Measured: binding

CbpI (from UniProt Q9KGY8 1-211)
binds: elastin [1] | C-reactive protein [2] | elastin [3] | C-reactive protein [4]
